Values from PubChem BioAssay AID1259425 (University of Nebraska Medical Center, 2018)
This is one part, drawn at random, of about 14,000 reagents tested. Not stated in the record: the time to read-out.

Aim: 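Seek colon cancer weak points whose silencing resembles KSR1 loss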 (primary screen)
Cell system: HCT116 human colon cancer cells
Reagent: siRNA pool against human genes, 50 nM siRNA
Detection: 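mRNA of six signature genes measured together by branched-DNA assay after 50 nM siRNA pool, blank removed, divided by geometric mean of two housekeeping genes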
Scale: BNIP3L mRNA: higher = more BNIP3L transcript after knockdown; NDRG1 mRNA: higher = more NDRG1 transcript after knockdown; BNIP3 mRNA: higher = more BNIP3 transcript after knockdown; ALDOC mRNA: higher = more ALDOC transcript after knockdown; ACSL5 mRNA: higher = more ACSL5 transcript after knockdown

| BNIP3L mRNA, set 1 | NDRG1 mRNA, set 1 | BNIP3 mRNA, set 1 | ALDOC mRNA, set 1 | ACSL5 mRNA, set 1 | target |
| --- | --- | --- | --- | --- | --- |
| 0.234 | 0.981 | 0.6 | 0.0449 | 0.436 | MTCH2 |
| 0.096 | 0.198 | 0.36 | 0.0247 | 0.153 | TBC1D5 |
| 0.0651 | 0.108 | 0.295 | 0.016 | 0.142 | TAL1 |
| 0.0561 | 0.157 | 0.264 | 0.00768 | 0.301 | GK |
| 0.0766 | 0.0588 | 0.266 | 0.0453 | 0.196 | PPBP |
| 0.111 | 0.0845 | 0.205 | 0.00365 | 0.116 | SHPK |
| 0.0531 | 0.145 | 0.225 | 0.00649 | 0.195 | WASF1 |
| 0.0725 | 0.197 | 0.301 | 0.0151 | 0.297 | DHX37 |
| 0.124 | 0.692 | 0.348 | 0.0194 | 0.227 | TIMM8B |
| 0.0731 | 0.515 | 0.341 | 0.0368 | 0.144 | RUSF1 |
| 0.115 | 0.443 | 0.293 | 0.0147 | 0.411 | PSMD9 |
| 0.0631 | 0.127 | 0.232 | 0.0201 | 0.207 | NEDD4L |
| 0.0736 | 0.24 | 0.228 | 0.0076 | 0.0917 | PDZD4 |
| 0.117 | 0.159 | 0.207 | 0.0114 | 0.127 | BAZ2A |
| 0.0786 | 0.215 | 0.313 | 0.0341 | 0.0853 | GPC5 |
| 0.0766 | 0.643 | 0.343 | 0.0199 | 0.286 | MAD2L1 |
| 0.276 | 0.465 | 0.63 | 0.12 | 0.172 | PDPR |
| 0.238 | 0.784 | 0.399 | 0.049 | 0.56 | PRAMEF2 |
| 0.0838 | 0.461 | 0.275 | 0.0217 | 0.217 | NREP |
| 0.114 | 0.134 | 0.299 | 0.0439 | 0.14 | NAP1L2 |
| 0.0958 | 0.182 | 0.216 | 0.0262 | 0.182 | XRCC6 |
| 0.171 | 0.0616 | 0.184 | 0.0127 | 0.291 | ABCG8 |
| 0.107 | 0.165 | 0.33 | 0.0372 | 0.221 | INPPL1 |
| 0.191 | 1.05 | 0.32 | 0.0396 | 0.177 | GNB2 |
| 0.101 | 0.372 | 0.291 | 0.0171 | 0.221 | CACYBP |
| 0.221 | 0.064 | 0.379 | 0.0392 | 0.111 | PVT1 |
| 0.111 | 0.432 | 0.199 | 0.0673 | 0.222 | FASN |
| 0.0347 | 0.103 | 0.268 | 0.0213 | 0.197 | ASGR2 |
| 0.114 | 0.199 | 0.213 | 0.035 | 0.0638 | TNFSF14 |
| 0.206 | 0.211 | 0.435 | 0.0372 | 0.182 | RGS2 |
| 0.0556 | 0.171 | 0.208 | 0.00908 | 0.174 | MSC |
| 0.133 | 0.301 | 0.253 | 0.0513 | 0.172 | JAKMIP2 |
| 0.0616 | 0.699 | 0.3 | 0.0662 | 0.192 | SSTR2 |
| 0.183 | 0.0927 | 0.173 | 0.0202 | 0.218 | SYNCRIP |
| 0.107 | 0.305 | 0.308 | 0.0185 | 0.259 | CRYBA2 |
| 0.0693 | 0.0739 | 0.24 | 0.0434 | 0.0782 | RFPL3 |
| 0.186 | 0.371 | 0.411 | 0.0781 | 0.345 | MUS81 |
| 0.251 | 0.765 | 0.225 | 0.0568 | 0.311 | SRI |
| 0.336 | 0.822 | 0.488 | 0.00781 | 0.458 | DMRTB1 |
| 0.204 | 0.919 | 0.595 | 0.0144 | 0.585 | PRKCZ |
| 0.0466 | 0.138 | 0.235 | 0.04 | 0.215 | GABRG2 |
| 0.0695 | 0.448 | 0.197 | 0.0172 | 0.521 | LINC01949 |
| 0.072 | 0.0834 | 0.203 | 0.00899 | 0.0703 | MICB |
| 0.0714 | 0.392 | 0.271 | 0.0456 | 0.186 | PHPT1 |
| 0.12 | 0.141 | 0.498 | 0.0286 | 0.184 | GTF3A |
| 0.126 | 0.0856 | 0.263 | 0.0348 | 0.128 | CRTAP |
| 0.086 | 0.264 | 0.229 | 0.0333 | 0.219 | FIBCD1 |
| 0.0456 | 0.302 | 0.315 | 0.0521 | 0.174 | AADAT |
| 0.0677 | 0.102 | 0.341 | 0.0124 | 0.196 | F3 |
| 0.2 | 0.255 | 0.45 | 0.0363 | 0.107 | MARCHF8 |

A portion of the results above:
| BNIP3L mRNA, set 1 | NDRG1 mRNA, set 1 | BNIP3 mRNA, set 1 | ALDOC mRNA, set 1 | ACSL5 mRNA, set 1 | target |
| --- | --- | --- | --- | --- | --- |
| 0.0556 | 0.171 | 0.208 | 0.00908 | 0.174 | MSC |
| 0.133 | 0.301 | 0.253 | 0.0513 | 0.172 | JAKMIP2 |
| 0.0616 | 0.699 | 0.3 | 0.0662 | 0.192 | SSTR2 |
| 0.183 | 0.0927 | 0.173 | 0.0202 | 0.218 | SYNCRIP |
| 0.107 | 0.305 | 0.308 | 0.0185 | 0.259 | CRYBA2 |
| 0.0693 | 0.0739 | 0.24 | 0.0434 | 0.0782 | RFPL3 |
| 0.186 | 0.371 | 0.411 | 0.0781 | 0.345 | MUS81 |
| 0.251 | 0.765 | 0.225 | 0.0568 | 0.311 | SRI |
